From publication PMC11427100

Protein sequences, listed by entry. Tags and fused reporters are not part of them.
UniProt Q6R891: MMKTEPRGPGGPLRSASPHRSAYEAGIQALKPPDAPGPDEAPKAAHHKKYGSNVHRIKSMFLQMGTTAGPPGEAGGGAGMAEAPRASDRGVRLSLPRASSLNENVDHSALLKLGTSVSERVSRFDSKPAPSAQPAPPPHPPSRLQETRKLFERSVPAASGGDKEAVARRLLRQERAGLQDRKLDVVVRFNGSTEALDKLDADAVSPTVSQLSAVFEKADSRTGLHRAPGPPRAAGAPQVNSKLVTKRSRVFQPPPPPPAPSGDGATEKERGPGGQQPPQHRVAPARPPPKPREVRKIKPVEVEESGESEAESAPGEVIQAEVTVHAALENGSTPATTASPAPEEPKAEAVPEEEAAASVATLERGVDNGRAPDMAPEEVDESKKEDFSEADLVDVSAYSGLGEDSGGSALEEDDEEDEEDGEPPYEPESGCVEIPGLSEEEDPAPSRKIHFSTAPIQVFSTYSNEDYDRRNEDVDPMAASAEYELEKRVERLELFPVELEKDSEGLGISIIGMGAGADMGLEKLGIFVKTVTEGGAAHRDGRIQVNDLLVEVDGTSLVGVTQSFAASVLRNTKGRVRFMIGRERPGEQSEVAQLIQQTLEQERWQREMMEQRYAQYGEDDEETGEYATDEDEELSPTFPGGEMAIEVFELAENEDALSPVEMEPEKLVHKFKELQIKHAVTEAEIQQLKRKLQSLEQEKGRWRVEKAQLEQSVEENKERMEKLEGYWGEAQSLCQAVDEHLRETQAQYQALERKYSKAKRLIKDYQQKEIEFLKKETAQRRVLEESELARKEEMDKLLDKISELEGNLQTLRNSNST

B1: Slc25a5 (protein, UniProt P51881 1-298)
chain: MTDAAVSFAKDFLAGGVAAAISKTAVAPIERVKLLLQVQHASKQITADKQYKGIIDCVVRIPKEQGVLSFWRGNLANVIRYFPTQALNFAFKDKYKQIFLGGVDKRTQFWRYFAGNLASGGAAGATSLCFVYPLDFARTRLAADVGKAGAEREFKGLGDCLVKIYKSDGIKGLYQGFNVSVQGIIIYRAAYFGIYDTAKGMLPDPKNTHIFISWMIAQSVTAVAGLTSYPFDTVRRRMMMQSGRKGTDIMYTGTLDCWRKIARDEGSKAFFKGAWSNVLRGMGGAFVLVLYDEIKKYT
B2: Kxd1 (protein, UniProt Q80XH1 1-177)
chain: MDTPDSASRVFCGRFLSMVNTDDVNAIILAQKNMLDRFEKTNEMLLNFNNLSSVRLQQMSERFMHHTRTLVDMKRDLDSIFRRIRTLKGKLARQHPEAFSHIPEGSFLEDEDEDPIPPSITTTIATSEQSTGSCDTSPDTVSPSLSPGFEDLSHIQPGSPAINGHRQTDDEEETHEE
B3: Lyz1 (protein, UniProt P17897 19-148)
chain: KVYNRCELARILKRNGMDGYRGVKLADWVCLAQHESNYNTRATNYNRGDRSTDYGIFQINSRYWCNDGKTPRSKNACGINCSALLQDDITAAIQCAKRVVRDPQGIRAWVAWRTQCQNRDLSQYIRNCGV
B4: Protein Myl12a (protein, UniProt Q6ZWQ9 1-172)
chain: MSSKRAKTKTTKKRPQRATSNVFAMFDQSQIQEFKEAFNMIDQNRDGFIDKEDLHDMLASMGKNPTDEYLDAMMNEAPGPINFTMFLTMFGEKLNGTDPEDVIRNAFACFDEEAIGTIQEDYLRELLTTMGDRFTDEEVDELYREAPIDKKGNFNYIEFTRILKHGAKDKDD
B5: Destrin (protein, UniProt Q9R0P5 1-165)
chain: MASGVQVADEVCRIFYDMKVRKCSTPEEIKKRKKAVIFCLSADKKCIVVEEGKEILVGDVGATITDPFKHFVGMLPEKDCRYALYDASFETKESRKEELMFFLWAPEQAPLKSKMIYASSKDAIKKKFPGIKHEYQANGPEDLNRTCIAEKLGGSLIVAFEGSPV
B6: Tropomodulin-3 (protein, UniProt Q9JHJ0 1-352)
chain: MALPFRKDLGDYKDLDEDELLGKLSESELKQLETVLDDLDPENALLPAGFRQKNQTSKSATGPFDRERLLSYLEKQALEHKDRDDYVPYTGEKKGKIFIPKQKPAQTLTEETISLDPELEEALTSASDTELCDLAAILGMHNLIADTPFCDVLGSSNGVNQERFPNVVKGEKILPVFDEPPNPTNVEESLKRIRENDARLVEVNLNNIKNIPIPTLKDFAKTLEANTHVKHFSLAATRSNDPVAVAFADMLKVNKTLKSLNMESNFITGAGVLALIDALRDNETLMELKIDNQRQQLGTSVELEMAKMLEENTNILKFGYQFTQQGPRTRAANAITKNNDLVRKRRIEGDHQ
B7: Cysteine and glycine-rich protein 1 (protein, UniProt P97315 1-193)
chain: MPNWGGGKKCGVCQKTVYFAEEVQCEGNSFHKSCFLCMVCKKNLDSTTVAVHGEEIYCKSCYGKKYGPKGYGYGQGAGTLSTDKGESLGIKHEEAPGHRPTTNPNASKFAQKIGGSERCPRCSQAVYAAEKVIGAGKSWHKSCFRCAKCGKGLESTTLADKDGEIYCKGCYAKNFGPKGFGFGQGAGALVHSE
B8: Protein flightless-1 homolog (protein, UniProt Q9JJ28 1-1271)
chain: MEATGVLPFVRGVDLSGNDFKGGYFPENVKAMTSLRWLKLNRTGLCYLPEELAALQKLEHLSVSHNHLTTLHGELSSLPSLRAIVARANSLKNSGVPDDIFKLDDLSVLDLSHNQLTECPRELENAKNMLVLNLSHNGIDSIPNQLFINLTDLLYLDLSENRLESLPPQMRRLVHLQTLVLNGNPLLHAQLRQLPAMMALQTLHLRNTQRTQSNLPTSLEGLSNLSDVDLSCNDLTRVPECLYTLPSLRRLNLSSNQIAELSLCIDQWVHLETLNLSRNQLTSLPSAICKLTKLKKLYLNSNKLDFDGLPSGIGKLTSLEEFMAANNNLELIPESLCRCPKLKKLVLNKNRLVTLPEAIHFLTEIQVLDVRENPSLVMPPKPADRTAEWYNIDFSLQNQLRLAGASPATVAAAAAVGSGSKDPLARKMRLRRRKDSAQDVQAKQVLKGMSDVAQEKNKNQEESIDARAPGGKVRRWDQGLEKPRLDYSEFFTEDVGQLPGLTIWQIENFVPVLVEEAFHGKFYEADCYIVLKTFLDDSGSLNWEIYYWIGGEATLDKKACSAIHAVNLRNYLGAECRTVREEMGDESEEFLQVFDNDISYIEGGTASGFYTVEDTHYVTRMYRVYGKKNIKLEPVPLKGSSLDPRFVFLLDQGLDIYVWRGAQATLSNTTKARLFAEKINKNERKGKAEITLLVQGQEPPGFWDVLGGEPSEIKNHVPDDFWPPQPKLYKVGLGLGYLELPQINYKLSVEHKKRPKVELMPGMRLLQSLLDTRCVYILDCWSDVFIWLGRKSPRLVRAAALKLGQELCGMLHRPRHTVVSRSLEGTEAQVFKAKFKNWDDVLTVDYTRNAEAVLQGQGLSGKVKRDTEKTDQMKADLTALFLPRQPPMPLAEAEQLMEEWNEDLDGMEGFVLEGRKFTRLPEEEFGHFYTQDCYVFLCRYWVPVEYEEEEKTEDKEGKASAEAREGEEAAAEAEEKQPEEDFQCIVYFWQGREASNMGWLTFTFSLQKKFESLFPGKLEVVRMTQQQENPKFLSHFKRKFIIHRGKRKVTQGTLQPTLYQIRTNGSALCTRCIQINTDSSLLNSEFCFILKVPFESEDNQGIVYAWVGRASDPDEAKLAEDILNTMFDASYSKQVINEGEEPENFFWVGIGAQKPYDDDAEYMKHTRLFRCSNEKGYFAVTEKCSDFCQDDLADDDIMLLDNGQEVYMWVGTQTSQVEIKLSLKACQVYIQHTRSKEHERPRRLRLVRKGNEQRAFTRCFHAWSTFRQAPA
B9: Myosin light polypeptide 6 (protein, UniProt Q60605 1-151)
chain: MCDFTEDQTAEFKEAFQLFDRTGDGKILYSQCGDVMRALGQNPTNAEVLKVLGNPKSDEMNVKVLDFEHFLPMLQTVAKNKDQGTYEDYVEGLRVFDKEGNGTVMGAEIRHVLVTLGEKMTEEEVEMLVAGHEDSNGCINYEAFVRHILSG
B10: Tropomodulin-1 (protein, UniProt P49813 1-359)
chain: MSYRRELEKYRDLDEDEILGALTEEELRTLENELDELDPDNALLPAGLRQKDQTTKAPTGPFKREELLDHLEKQAKEFKDREDLVPYTGEKRGKVWVPKQKPMDPVLESVTLEPELEEALANASDAELCDIAAILGMHTLMSNQQYYQALGSSSIVNKEGLNSVIKPTQYKPVPDEEPNSTDVEETLERIKNNDPELEEVNLNNIRNIPIPTLKAYAEALKENSYVKKFSIVGTRSNDPVAFALAEMLKVNKVLKTLNVESNFISGAGILRLVEALPHNTSLVELKIDNQSQPLGNKVEMEIVNMLEKNTTLLKFGYHFTQQGPRLRASNAMMSNNDLVRKRRLADLTGPIIPKCRSGV
B11: Calponin-1 (protein, UniProt Q08091 1-297)
chain: MSSAHFNRGPAYGLSAEVKNKLAQKYDHQREQELREWIEGVTGRRIGNNFMDGLKDGIILCEFINKLQPGSVKKVNESTQNWHQLENIGNFIKAITKYGVKPHDIFEANDLFENTNHTQVQSTLLALASMAKTKGNKVNVGVKYAEKQERRFEPEKLREGRNIIGLQMGTNKFASQQGMTAYGTRRHLYDPKLGTDQPLDQATISLQMGTNKGASQAGMTAPGTKRQIFEPGLGMEHCDTLNVSLQMGSNKGASQRGMTVYGLPRQVYDPKYCLNPEYPELSEPTHNHHPHNYYNSA
B12: Unconventional myosin-Id (protein, UniProt Q5SYD0 1-1006)
chain: MAEQESLEFGKADFVLMDTVSMPEFMANLRLRFEKGRIYTFIGEVVVSVNPYKVLNIYGRDTVEQYKGRELYERPPHLFAIADAAYKAMKRRSKDTCIMISGESGAGKTEASKYIMQYIAAITNPSQRAEIERVKNMLLKSNCVLEAFGNAKTNRNDNSSRFGKYMDINFDFKGDPIGGHINNYLLEKSRVIVQQPGERSFHSFYQLLQGGSEQMLHSLHLQKSLSSYNYIRVGAQLKSSINDAAEFKVVADAMKVIGFKPEEIQTVYKILAVILHLGNLKFIVDGDTPLIENGKVVSVIAELLSTKADMVEKALLYRTVATGRDIIDKQHTEQEASYGRDAFAKAIYERLFCWIVTRINDIIEVKNYDTTIHGKNTVIGVLDIYGFEIFDNNSFEQFCINYCNEKLQQLFIQLVLKQEQEEYQREGIPWKHIDYFNNQIIVDLVEQQHKGIIAILDDACMNVGKVTDGMFLEALNSKLGKHGHFSSRKTCASDKILEFDRDFRIRHYAGDVVYSAIGFIDKNKDTLFQDFKRLMYNSSNPVLKNMWPEGKLSITEVTKRPLTAATLFKNSMIALVDNLASKEPYYVRCIKPNDKKSPQIFDDERCRHQVEYLGLLENVRVRRAGFAFRQTYEKFLHRYKMISEFTWPNHDLPSDKEAVKKLIERCGFQDDVAYGKSKIFIRTPRTLFTLEELRAQMLVRVVLFLQKVWRGTLARMRYKRTKAALTIIRYYRRYKVKSYIHEVARRFHGVKNMRDYGKHVKWPTPPKVLRRFEEALQSIFNRWRASQLIKTIPASDLPQVRAKVAAMEMLKGQRADLGLQRAWEGNYLASKPDTPQTSGTFVPVANELKRKDKYMNVLFSCHVRKVNRFSKVEDRAIFVTDRHLYKMDPTKQYKVMKTIPLYNLTGLSVSNGKDQLVVFHTKDNKDLIVCLFSKQPTHESRIGELVGVLVNHFKSEKRHLQVNVTNPVQCSLHGKKCTVSVETRLNQPQPDFTKNRSGFILSVPGN
B13: Amy2 (protein, UniProt P00688 16-508)
chain: QYDPHTSDGRTAIVHLFEWRWVDIAKECERYLAPKGFGGVQVSPPNENVVVHNPSRPWWERYQPISYKICTRSGNEDEFRDMVTRCNNVGVRIYVDAVINHMCGAGNPAGTSSTCGSYLNPNNREFPAVPYSAWDFNDNKCNGEIDNYNDAYQVRNCRLTGLLDLALEKDYVRTKVADYMNHLIDIGVAGFRLDAAKHMWPGDIKAVLDKLHNLNTKWFSQGSRPFIFQEVIDLGGEAIKGSEYFGNGRVTEFKYGAKLGTVIRKWNGEKMSYLKNWGEGWGLVPSDRALVFVDNHDNQRGHGAGGSSILTFWDARMYKMAVGFMLAHPYGFTRVMSSYRWNRNFQNGKDQNDWIGPPNNNGVTKEVTINADTTCGNDWVCEHRWRQIRNMVAFRNVVNGQPFSNWWDNNSNQVAFSRGNRGFIVFNNDDWALSATLQTGLPAGTYCDVISGDKVDGNCTGLRVNVGSDGKAHFSISNSAEDPFIAIHADSKL

Legend:
[1] = biological target: Spinophilin (mouse (endogenous in pancreas and isolated islets)) (UniProt Q6R891); assay: affinity purification with mass spectrometry; spinophilin immunoprecipitated from islets isolated from three WT and one Spino^-/- mice; label-free, spectral counting
[2] = biological target: Spinophilin (mouse (endogenous in pancreas and isolated islets)) (UniProt Q6R891); assay: affinity purification with mass spectrometry; spinophilin immunoprecipitated from pancreas of WT chow-fed, WT high-fat diet-fed and Spino^-/- high-fat diet-fed male mice; on-bead digestion, TMT10plex; hits filtered by WT/KO log2 fold-enrichment of 0.5 and two unique peptides, listed hits increased in HFF vs. lean

Binder | binding [1] | binding [2]
B1 | binds | 
B2 | binds | 
B3 | binds | 
B4 |  | binds
B5 |  | binds
B6 |  | binds
B7 |  | binds
B8 |  | binds
B9 |  | binds
B10 |  | binds
B11 |  | binds
B12 |  | binds
B13 | binds | 

No constants are given. Whether binding was seen depends on the method and setting. Binding seen in cells or lysates may run through a third protein. A yes stands for co-enrichment or nearness to the bait. Other partners may have been found.
